# Whole data set: some 33,000 sequences, median “E-score (-0.5 to 0.5)” near -0.0059, cut for the highest 2% near 0.26. This is one part of the list.
# Molecular target: T1, Cin5 (UniProt P40917)
# T1 sequence: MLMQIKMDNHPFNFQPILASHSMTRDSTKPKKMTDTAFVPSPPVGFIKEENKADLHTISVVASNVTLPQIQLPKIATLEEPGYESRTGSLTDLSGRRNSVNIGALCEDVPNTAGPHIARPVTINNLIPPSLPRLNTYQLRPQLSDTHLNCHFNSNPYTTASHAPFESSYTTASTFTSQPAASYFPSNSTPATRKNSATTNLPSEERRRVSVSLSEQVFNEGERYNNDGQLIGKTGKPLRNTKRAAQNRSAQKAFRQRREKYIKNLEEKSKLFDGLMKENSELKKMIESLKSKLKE
# Experiment: PBM E-score (8-mer binding enrichment) (E-score (-0.5 to 0.5)); higher = stronger / more preferred TF binding
# Details: protein concentration: 100 nM; construct: GST-full length
# Outline: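 Yeast transcription factors carrying a GST tag, as full-length proteins or DNA-binding domains, were produced by PURExpress in vitro transcription/translation. About 100-200 nM protein was applied to universal all-10-mer Agilent arrays, double-stranded by primer extension on fresh or once-stripped slides. Bound protein was detected with fluorescent anti-GST, and scans were normalised with masliner. The Universal PBM Analysis Suite gave each ungapped eight-base word, pooled with its reverse complement, an E-score, a modified Wilcoxon-Mann-Whitney statistic.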
row,Sequence,PBM E-score
1,CTCCCTCA,-0.174
2,AACCCTTC,-0.0592
3,ATCAATAG,0.0422
4,AATTCGTC,0.223
5,ATGGACCA,-0.0099
6,CGGCGGAA,0.0585
7,AATCTAAT,0.0853
8,GTGTGTTA,0.221
9,ATCCGTGC,0.0553
10,CGCGCAAC,0.00762
11,GCACTGAC,-0.141
12,GAGGACCA,-0.12
13,GGCTATGA,-0.0844
14,TATTTGGA,-0.0386
15,CATAGGAA,-0.08
16,CCCAGACA,-0.156
17,CCACGAGA,-0.0932
18,AGTCCTCC,-0.338
19,ACACCAGT,0.00112
20,AGAACCCA,0.0173
21,GCCCTGGA,-0.163
22,CCCGATGC,-0.0879
23,ACACAAAC,0.132
24,CTTGAAGC,-0.201
25,GAACTCAC,-0.014

# Reprinted at random: 4 entries already listed, in no set order.
row,Sequence,PBM E-score
16,CCCAGACA,-0.156
20,AGAACCCA,0.0173
22,CCCGATGC,-0.0879
24,CTTGAAGC,-0.201

# Additional entries:

row,Sequence,PBM E-score
1,ATAGGCGC,0.00342
2,AGGAAAGC,-0.125
3,ACTAAAGT,-0.071
4,CGACAATC,0.0468
5,ACGTATAA,0.141
6,ACCCCTAG,-0.0198
7,ATTCCAGC,-0.101
8,CCCCGTCA,-0.0578
9,AGTCTTCC,-0.156
10,GGTGAGAC,-0.25
11,GAATTTGC,0.0868
12,CGGATGCA,-0.0891
13,AACTGCAA,0.0942
14,ATGTTCCC,-0.07
15,AGCACCAC,-0.265
16,CTACGAAA,-0.0568
17,CATAAAGA,0.104
18,TCAGTACA,0.134
19,GCCGTGCC,-0.178
20,AATACCGT,0.182
21,CTCTGACA,-0.16
22,CCGCGGAA,0.272
23,CCCGGACC,-0.231
24,CACCGTGC,0.0367
25,CTAGTCCA,-0.0868

row,Sequence,PBM E-score
1,CCCGACCG,-0.176
2,GAATCGGA,0.211
3,GGCAACGA,0.0486
4,CGAAGGGA,-0.074
5,ACGATACG,-0.135
6,CGGTCTCC,-0.209
7,CAAAGTGA,-0.0192
8,CAACCCCA,0.199
9,CAGACACC,-0.126
10,AGTTTGAT,0.158
11,TAGGATCA,-0.00359
12,AACGCGAG,0.0992
13,AAACACTT,0.0343
14,ATGTCAAA,0.147
15,GACACTTA,-0.116
16,GCTGCAGA,0.0469
17,GCCCCGGA,-0.099
18,GCAACCCA,-0.0066
19,ACACGCAA,0.163
20,GGCGCACC,-0.273
21,CCAAACCA,-0.0896
22,AGACGTAT,-0.0245
23,AGTGATCA,-0.0101
24,GTTATTAA,0.214
25,AACTGCAG,-0.0807

# For reference, part of the list above:
row,Sequence,PBM E-score
18,AGTCCTCC,-0.338
19,ACACCAGT,0.00112

# Further entries follow.

row,Sequence,PBM E-score
1,ATAAAGGC,-0.0903
2,ACCCGTAC,0.0331
3,AGAACTCA,0.08
4,CGGGTCTA,-0.0543
5,AGTAGTGG,0.164
6,ACTGACCC,-0.204
7,AGGCGGGC,-0.173
8,ACATGTCA,0.0615
9,AATTAGAA,0.0862
10,CCCGAATA,0.0813
11,AAGTAGAC,-0.00598
12,AAATTATT,0.183
13,TGCTGTAA,-0.0443
14,CATGGCAA,0.00441
15,AACCTGAA,-0.191
16,GCCGAACA,0.0248
17,CCAACTAG,0.037
18,TTCAACAA,0.06
19,ACACAGGG,-0.00584
20,CCAATTGC,-0.0198
21,GGGCTTGA,-0.269
22,GGGGATCA,-0.18
23,AAAGTCCC,-0.117
24,CTGTCTTC,-0.0257
25,CAAAGCAC,-0.0917

row,Sequence,PBM E-score
1,ACTTCGGG,-0.00617
2,ATATGGAT,0.193
3,ACCTTGCT,-0.0373
4,ATCCACTG,0.00934
5,ACAGCTAG,-0.0798
6,TAGCGGAA,0.0123
7,CGGCACGC,-0.24
8,ACTTTACG,0.119
9,AAAGTTCA,0.046
10,TGCCAAAA,0.0367
11,CGTGGGAA,-0.132
12,GTATTAAC,0.00428
13,GATAGAGC,-0.026
14,TGCATGAA,0.155
15,CCACTAAC,0.0063
16,CACCGTCG,-0.12
17,CTTGCATA,0.132
18,AGCAGATA,-0.0272
19,GACTCAAC,-0.115
20,ATTTTGAA,0.0478
21,ATTTACGG,0.226
22,GATACAAC,0.0977
23,ACCACTAT,0.0321
24,AAAGAGGT,0.0523
25,ACTGAGGA,-0.165

row,Sequence,PBM E-score
1,AAGGGATT,-0.164
2,ACCCAGCG,-0.148
3,ATTTAGCC,0.1
4,CCATTTAC,0.147
5,GGCGATAA,0.103
6,CACATCCC,0.00018
7,ATGATGAA,0.258
8,AGGCCGAA,-0.161
9,GACATTAC,0.00091
10,AGCCGTGG,-0.122
11,CTCTGGTA,-0.0329
12,ACAAGGTG,-0.0152
13,GACGAGGA,-0.0685
14,TATCGCGA,0.199
15,ACCAACTG,0.0343
16,AGATCGTC,-0.162
17,CATAGTGG,0.0868
18,AGAAGCAG,-0.0731
19,ACCCCGAC,-0.107
20,CGGGCTAA,-0.184
21,TAATAGAA,0.127
22,AGTCGAGG,-0.168
23,CCTTGGGA,-0.163
24,ACTTACCA,0.0619
25,CTCAACTA,0.0852

row,Sequence,PBM E-score
1,AGACAGAC,0.192
2,AGGGTCAG,-0.333
3,ATATAGAA,0.229
4,GTAGACTA,-0.305
5,AAAGTCCA,-0.0275
6,GAACGAAC,-0.016
7,AGCCTGGA,-0.015
8,AGGGCTAG,-0.243
9,ACTATCCT,-0.0237
10,AATCCCTA,0.00972
11,GTCCCTGA,-0.146
12,AGGTGGGG,-0.0141
13,CGTCACCC,-0.0312
14,CATAGCGA,-0.123
15,CACTTTCG,0.0452
16,CACAGTTC,0.0834
17,AAAATGGC,0.158
18,GTCCAGAA,-0.0545
19,GAGATGGC,0.113
20,CCGTCCCG,-0.238
21,ATGACTGG,-0.0808
22,GAGCTATC,-0.106

# From the supplement of paper PMC3334620
